Values from PubChem BioAssay AID1259285 (Sanger Institute, 2017)
Assay: 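Kinases needed for HCC56 growth and kinases whose loss boosts drug effects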 (primary screen). Cell system: human HCC56 colorectal cancer cells. Reagent: siRNA pool against human genes. Conditions: DMSO vehicle, or anchor drug BYL719 at 1 µM, cetuximab at 5 µg/ml, or trametinib at 10 nM. Detection: 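Viability as a ratio to non-targeting pool wells, averaged over replicates and turned into a robust z-score; synergy scores with BYL719, cetuximab or trametinib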. Reading the numbers: viability robust z-score, no drug: higher = more viable cells, weaker knock-down effect. Active means: 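Essential when the drug-free viability robust z-score falls below -3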. Meaning of the calls: active = essential without drug; inactive = no change without drug.
This is one part, drawn at random, of 794 deposited reagents. 20 of all reagents (2.5%) count as active. 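Calls rest on the drug-free arm alone and ignore synergy scores; viability ratios seem to be capped at 1.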 Further read-outs or replicates are left out here. No sequences are given here. The record does not give: the amount of reagent, the time to read-out.

Silencing of PI4KB resulted in: viability robust z-score, no drug 0.458; inactive.
Against PRKCH, the entry reads viability robust z-score, no drug -1.89; inactive.
Silencing of CDKL4 resulted in: viability robust z-score, no drug -0.386; inactive.
Silencing of FLT4 resulted in: viability robust z-score, no drug 0.458; inactive.
Depletion of PI4K2A gave: viability robust z-score, no drug 0.458; inactive.
For BMPR1B, the entry reads viability robust z-score, no drug 0.458; inactive.
Silencing of BLK gave: viability robust z-score, no drug 0.458; inactive.
ANKK1 scored viability robust z-score, no drug 0.458; inactive.

Looked up above.
For “viability robust z-score, no drug”, CDKL4 reads -0.386
For “viability robust z-score, no drug”, PI4K2A is entered as 0.458

Further entries follow:
PIP5K1B gave viability robust z-score, no drug 0.458; inactive.
For PHKG2 the deposit lists viability robust z-score, no drug 0.458; inactive.
After knock-down of LMTK1, the record shows viability robust z-score, no drug 0.458; inactive.
Silencing of KALRN resulted in: viability robust z-score, no drug 0.458; inactive.
GUK1 scored viability robust z-score, no drug 0.458; inactive.
Against MAST1, the entry reads viability robust z-score, no drug -0.723; inactive.
With knock-down of TAOK1, the record shows viability robust z-score, no drug 0.458; inactive.
Knock-down of ERBB3 came out at: viability robust z-score, no drug 0.456; inactive.
Against ATR, the entry reads viability robust z-score, no drug 0.458; inactive.
Silencing of PIK3R2 resulted in: viability robust z-score, no drug 0.458; inactive.
For N4BP2, the entry reads viability robust z-score, no drug 0.458; inactive.
